## Primary screen of a compound library

From ChEMBL document CHEMBL3988442, “University of Dundee, Small-Polar-MMV Screening Library” (2021).

Mtb growth Cornell: 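Whole-cell assay for inhibitors of Mycobacterium tuberculosis growth, labelled Cornell in the record; the read-out is not stated. The concentration is filed as 10 mM, unlikely as a test dose, so the dose is not known. The record gives no direction; compounds strong in two other growth screens of this library score well above the rest, so higher reads as stronger inhibition. Of about 53,000 compounds tested this way, about 900 (1.7%) reached 50% or more in at least one test.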
Mtb heat-shock: 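Assay on Mycobacterium tuberculosis, filed only as a heat shock assay from Cornell; the read-out is not stated. The concentration is filed as 10 mM, unlikely as a test dose, so the dose is not known. Direction is inferred from retests: higher values go with stronger inhibition. Of about 69,000 compounds tested this way, about 930 (1.4%) reached 50% or more in at least one test.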

Values are the deposited “Percent Effect”, in %.
The controls that fix the scale are not given in the record; negative values are as filed.
This is an unselected part of the compounds tested.
A dash means the value is not listed here; it may have been measured.

| # | structure | Mtb growth Cornell | Mtb heat-shock |
|---|---|---|---|
| 1 | `CCS(=O)(=O)N1CCCn2cnc(COc3cccnc3)c2C1.O=C(O)C(F)(F)F` | 13.68 | 4.753 |
| 2 | `COCC(NC(=O)c1cc(NC(C)=O)ccc1Cl)c1ccccn1` (stereo not given) | -2.98 | 11.15 |
| 3 | `CCn1ccc2ccc(CN3CCCC3c3nc(C(C)C)no3)cc21` (stereo not given) | 3.738 | -12.73 |
| 4 | `Cc1nc(C2CCCN(C(=O)CCCOc3cccc(F)c3)C2)no1` (stereo not given) | - | 2.288 |
| 5 | `NC(=O)CS(=O)(=O)Cc1ccc(F)cc1` | -16.74 | -2.07 |
| 6 | `Cc1cc(C)nc(Nc2nccnc2C2CCCN(C(C)C)C2)n1` (stereo not given) | 29.5 | -1.764 |
| 7 | `Cc1nc(CNC(=O)Nc2c(C)n[nH]c2C)cs1` | -28.31 | -0.1527 |
| 8 | `[H][C@]12CC[C@]([H])(CN(C(=O)CCn3cccn3)C1)N(Cc1ccccn1)C2=O` | - | -20.28 |
| 9 | `COc1cccc(-c2noc3c2CN(c2ncnc4c2CCC4)CC3)c1` | 35.28 | 27.54 |
| 10 | `O=C(COc1ccc2c(c1)CCC2)N1CCOCC1c1ncon1` (stereo not given) | 12.9 | 16.87 |
| 11 | `CNC(=O)C1CN(C(=O)c2ccccc2)Cc2cn(C)nc21` (stereo not given) | -10.31 | -14.21 |
| 12 | `CCC(CNC(=O)Cn1ccnc1)Oc1cccc(F)c1` (stereo not given) | 10.2 | -17.46 |
| 13 | `CCc1nc(C2CCCN(C(=O)c3ccc4[nH]nnc4c3)C2)no1` (stereo not given) | - | -14.83 |
| 14 | `Cc1nncn1CCN1C(=O)CC2(CCCC2)CC1=O` | -13.93 | -12.36 |
| 15 | `O=C(c1nc2c(s1)CCCN2CC1CC1)N1CCOCC1` | -46.32 | 5.372 |
| 16 | `Cl.Cn1nc(C2CCCN(Cc3ccc(F)cc3)C2)c2nccnc21` (stereo not given) | -69.25 | -7.861 |
| 17 | `COCCN1CC2(CCCN(c3ncnc4[nH]cnc34)C2)CCC1=O` (stereo not given) | -0.3036 | -13.23 |
| 18 | `CCN(CC)CCn1ccnc1-c1cccc(C#N)c1` | - | -18.6 |
| 19 | `O=C(NCCn1ccnc1)N1CCN(Cc2ccsc2)CC1` | - | -7.422 |
| 20 | `CCC1=NN2C(=N)/C(=C/c3cccc(Cl)c3)C(=O)N=C2S1` | - | -7.625 |
| 21 | `Cn1ncc2c(NCC3CCCN3c3cccnn3)ncnc21` (stereo not given) | 19.68 | -8.807 |
| 22 | `CCc1noc(CC)c1CC(=O)N1CCC(C(=O)NC(C)C)CC1` | 14.11 | -4.642 |
| 23 | `CC(=O)Nc1ccc(C(=O)NCCCn2cccc2)cc1` | 8.002 | 0.5372 |
| 24 | `CC(C)CN1CCN(C(=O)c2ccncc2F)Cc2cccnc21.O=C(O)C(F)(F)F.O=C(O)C(F)(F)F` | 25.45 | 0.3065 |
| 25 | `Cn1nc(C(=O)N2CCOCC2)cc1C(=O)Nc1c(Cl)cccc1Cl` | - | -24.01 |
| 26 | `CS(=O)(=O)c1cncnc1C1CCCN(C(=O)NCc2ccccc2)C1` (stereo not given) | 6.942 | 1.591 |
| 27 | `[H][C@@]12CCN(Cc3ccco3)CC[C@]1([H])[C@@H](COCC1CC1)CN(C)C2=O` | 20.74 | 6.428 |
| 28 | `CCOC(=O)N1CCC(NCC2CCN(c3cnn(C)c(=O)c3)C2)CC1` (stereo not given) | 10.27 | -1.455 |
| 29 | `CC1CN(C)c2ccccc2CN1C(=O)c1cc(C#N)cn1C` (stereo not given) | -39.88 | -22.8 |
| 30 | `CCC(CNC(=O)NCc1cc[nH]n1)N1CCCC1` (stereo not given) | - | 9.228 |
| 31 | `NC(=O)c1csc(N2CCN(C3CCc4ccccc4C3)CC2)n1` (stereo not given) | - | 3.377 |

Some entries from above, unchanged:

For COCCN1CC2(CCCN(c3ncnc4[nH]cnc34)C2)CCC1=O (stereo not given) the result was Mtb growth Cornell: -0.3036%; Mtb heat-shock: -13.23%.
For CCN(CC)CCn1ccnc1-c1cccc(C#N)c1 the result was Mtb heat-shock: -18.6%.